Results on three molecules are retold here after the supplement of paper PMC10032668.

Chains of the proteins cited; added tags and fusions are not shown.
GSPT2, Q8IYD1, UniProt Q8IYD1, whole entry: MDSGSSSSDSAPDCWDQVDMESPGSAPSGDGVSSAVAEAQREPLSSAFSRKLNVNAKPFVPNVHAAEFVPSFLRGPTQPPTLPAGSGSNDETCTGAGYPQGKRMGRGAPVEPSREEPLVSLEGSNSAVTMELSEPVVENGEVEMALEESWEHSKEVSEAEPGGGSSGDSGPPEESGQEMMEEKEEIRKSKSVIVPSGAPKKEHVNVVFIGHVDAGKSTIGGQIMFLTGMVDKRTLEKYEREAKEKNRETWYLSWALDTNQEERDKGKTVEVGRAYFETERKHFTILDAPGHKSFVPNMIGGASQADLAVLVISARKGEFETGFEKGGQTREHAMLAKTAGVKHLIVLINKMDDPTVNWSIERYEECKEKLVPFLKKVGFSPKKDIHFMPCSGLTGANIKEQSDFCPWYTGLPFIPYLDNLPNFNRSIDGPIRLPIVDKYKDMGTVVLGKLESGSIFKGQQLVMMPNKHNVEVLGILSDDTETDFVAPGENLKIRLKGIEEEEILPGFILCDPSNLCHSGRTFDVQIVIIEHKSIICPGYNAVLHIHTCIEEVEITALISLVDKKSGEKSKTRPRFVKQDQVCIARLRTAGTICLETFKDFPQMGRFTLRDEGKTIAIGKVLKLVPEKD
PHAX, Q9H814, UniProt Q9H814, whole entry: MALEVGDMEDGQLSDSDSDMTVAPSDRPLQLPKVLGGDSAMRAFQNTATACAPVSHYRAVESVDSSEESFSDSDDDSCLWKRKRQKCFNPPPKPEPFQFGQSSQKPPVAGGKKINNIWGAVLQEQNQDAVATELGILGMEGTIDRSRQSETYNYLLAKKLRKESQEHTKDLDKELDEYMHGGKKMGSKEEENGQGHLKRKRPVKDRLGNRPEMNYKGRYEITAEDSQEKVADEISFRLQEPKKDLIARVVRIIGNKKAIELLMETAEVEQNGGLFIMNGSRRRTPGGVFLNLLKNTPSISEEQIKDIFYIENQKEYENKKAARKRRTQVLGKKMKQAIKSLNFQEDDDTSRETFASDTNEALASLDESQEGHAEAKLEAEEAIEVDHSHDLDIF
PRKAR2A, P13861, UniProt P13861, whole entry: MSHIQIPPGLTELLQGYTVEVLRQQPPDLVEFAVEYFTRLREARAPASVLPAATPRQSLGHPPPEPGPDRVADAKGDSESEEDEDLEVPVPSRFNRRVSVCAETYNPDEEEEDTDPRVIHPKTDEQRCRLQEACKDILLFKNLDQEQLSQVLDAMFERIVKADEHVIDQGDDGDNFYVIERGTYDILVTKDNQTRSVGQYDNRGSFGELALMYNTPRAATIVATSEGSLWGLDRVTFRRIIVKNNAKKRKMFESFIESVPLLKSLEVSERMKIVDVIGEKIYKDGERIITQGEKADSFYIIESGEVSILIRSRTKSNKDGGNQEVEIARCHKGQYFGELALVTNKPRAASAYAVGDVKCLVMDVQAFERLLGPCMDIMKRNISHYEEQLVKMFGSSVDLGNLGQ
EIF3H, O15372, UniProt O15372, whole entry: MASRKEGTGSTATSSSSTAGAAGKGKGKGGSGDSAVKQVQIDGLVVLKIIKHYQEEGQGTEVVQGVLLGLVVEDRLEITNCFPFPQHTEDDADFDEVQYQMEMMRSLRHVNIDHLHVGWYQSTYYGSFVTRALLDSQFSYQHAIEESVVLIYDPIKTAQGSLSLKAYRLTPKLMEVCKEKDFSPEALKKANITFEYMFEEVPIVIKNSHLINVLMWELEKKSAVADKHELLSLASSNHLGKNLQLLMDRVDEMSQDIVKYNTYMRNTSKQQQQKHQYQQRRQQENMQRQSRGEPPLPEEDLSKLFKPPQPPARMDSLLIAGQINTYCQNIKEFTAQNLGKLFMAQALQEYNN
RETREG3, Q86VR2, UniProt Q86VR2, whole entry: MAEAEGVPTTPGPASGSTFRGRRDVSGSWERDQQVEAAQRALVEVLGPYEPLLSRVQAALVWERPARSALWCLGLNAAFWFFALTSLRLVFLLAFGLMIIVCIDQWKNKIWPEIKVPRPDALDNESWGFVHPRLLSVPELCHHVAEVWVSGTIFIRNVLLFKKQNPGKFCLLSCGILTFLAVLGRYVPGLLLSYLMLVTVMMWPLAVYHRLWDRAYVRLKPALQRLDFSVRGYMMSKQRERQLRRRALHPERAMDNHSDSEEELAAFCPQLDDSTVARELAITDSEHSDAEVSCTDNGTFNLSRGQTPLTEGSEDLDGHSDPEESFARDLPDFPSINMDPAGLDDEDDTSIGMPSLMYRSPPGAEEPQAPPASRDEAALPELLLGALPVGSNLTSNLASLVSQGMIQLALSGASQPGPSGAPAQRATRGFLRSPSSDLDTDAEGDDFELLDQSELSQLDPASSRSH
RFC4, P35249, UniProt P35249, whole entry: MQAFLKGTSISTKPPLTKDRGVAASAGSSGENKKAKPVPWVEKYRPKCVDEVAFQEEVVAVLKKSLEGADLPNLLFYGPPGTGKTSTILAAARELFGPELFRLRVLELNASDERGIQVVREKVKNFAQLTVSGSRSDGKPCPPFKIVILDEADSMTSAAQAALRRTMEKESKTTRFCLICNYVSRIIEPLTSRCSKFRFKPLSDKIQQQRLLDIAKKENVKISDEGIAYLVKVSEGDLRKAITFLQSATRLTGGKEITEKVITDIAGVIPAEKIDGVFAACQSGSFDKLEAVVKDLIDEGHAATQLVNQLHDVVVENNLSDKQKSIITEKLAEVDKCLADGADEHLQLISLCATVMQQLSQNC
IK, Q13123, UniProt Q13123, whole entry: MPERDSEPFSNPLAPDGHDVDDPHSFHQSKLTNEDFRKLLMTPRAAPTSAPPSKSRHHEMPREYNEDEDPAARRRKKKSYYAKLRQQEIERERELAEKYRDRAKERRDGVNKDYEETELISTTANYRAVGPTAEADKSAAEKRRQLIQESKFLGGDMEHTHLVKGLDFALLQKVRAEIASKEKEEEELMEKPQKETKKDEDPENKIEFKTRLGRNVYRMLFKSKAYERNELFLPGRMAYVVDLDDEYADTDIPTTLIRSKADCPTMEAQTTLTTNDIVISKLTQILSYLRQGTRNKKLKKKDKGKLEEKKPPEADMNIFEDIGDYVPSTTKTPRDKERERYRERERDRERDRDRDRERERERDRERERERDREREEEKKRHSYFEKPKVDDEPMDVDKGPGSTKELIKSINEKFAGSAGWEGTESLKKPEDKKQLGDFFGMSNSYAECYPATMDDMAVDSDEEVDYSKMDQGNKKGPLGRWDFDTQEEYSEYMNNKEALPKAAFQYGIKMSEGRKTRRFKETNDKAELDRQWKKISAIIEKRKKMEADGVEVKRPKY
RANBP2, P49792, UniProt P49792, whole entry: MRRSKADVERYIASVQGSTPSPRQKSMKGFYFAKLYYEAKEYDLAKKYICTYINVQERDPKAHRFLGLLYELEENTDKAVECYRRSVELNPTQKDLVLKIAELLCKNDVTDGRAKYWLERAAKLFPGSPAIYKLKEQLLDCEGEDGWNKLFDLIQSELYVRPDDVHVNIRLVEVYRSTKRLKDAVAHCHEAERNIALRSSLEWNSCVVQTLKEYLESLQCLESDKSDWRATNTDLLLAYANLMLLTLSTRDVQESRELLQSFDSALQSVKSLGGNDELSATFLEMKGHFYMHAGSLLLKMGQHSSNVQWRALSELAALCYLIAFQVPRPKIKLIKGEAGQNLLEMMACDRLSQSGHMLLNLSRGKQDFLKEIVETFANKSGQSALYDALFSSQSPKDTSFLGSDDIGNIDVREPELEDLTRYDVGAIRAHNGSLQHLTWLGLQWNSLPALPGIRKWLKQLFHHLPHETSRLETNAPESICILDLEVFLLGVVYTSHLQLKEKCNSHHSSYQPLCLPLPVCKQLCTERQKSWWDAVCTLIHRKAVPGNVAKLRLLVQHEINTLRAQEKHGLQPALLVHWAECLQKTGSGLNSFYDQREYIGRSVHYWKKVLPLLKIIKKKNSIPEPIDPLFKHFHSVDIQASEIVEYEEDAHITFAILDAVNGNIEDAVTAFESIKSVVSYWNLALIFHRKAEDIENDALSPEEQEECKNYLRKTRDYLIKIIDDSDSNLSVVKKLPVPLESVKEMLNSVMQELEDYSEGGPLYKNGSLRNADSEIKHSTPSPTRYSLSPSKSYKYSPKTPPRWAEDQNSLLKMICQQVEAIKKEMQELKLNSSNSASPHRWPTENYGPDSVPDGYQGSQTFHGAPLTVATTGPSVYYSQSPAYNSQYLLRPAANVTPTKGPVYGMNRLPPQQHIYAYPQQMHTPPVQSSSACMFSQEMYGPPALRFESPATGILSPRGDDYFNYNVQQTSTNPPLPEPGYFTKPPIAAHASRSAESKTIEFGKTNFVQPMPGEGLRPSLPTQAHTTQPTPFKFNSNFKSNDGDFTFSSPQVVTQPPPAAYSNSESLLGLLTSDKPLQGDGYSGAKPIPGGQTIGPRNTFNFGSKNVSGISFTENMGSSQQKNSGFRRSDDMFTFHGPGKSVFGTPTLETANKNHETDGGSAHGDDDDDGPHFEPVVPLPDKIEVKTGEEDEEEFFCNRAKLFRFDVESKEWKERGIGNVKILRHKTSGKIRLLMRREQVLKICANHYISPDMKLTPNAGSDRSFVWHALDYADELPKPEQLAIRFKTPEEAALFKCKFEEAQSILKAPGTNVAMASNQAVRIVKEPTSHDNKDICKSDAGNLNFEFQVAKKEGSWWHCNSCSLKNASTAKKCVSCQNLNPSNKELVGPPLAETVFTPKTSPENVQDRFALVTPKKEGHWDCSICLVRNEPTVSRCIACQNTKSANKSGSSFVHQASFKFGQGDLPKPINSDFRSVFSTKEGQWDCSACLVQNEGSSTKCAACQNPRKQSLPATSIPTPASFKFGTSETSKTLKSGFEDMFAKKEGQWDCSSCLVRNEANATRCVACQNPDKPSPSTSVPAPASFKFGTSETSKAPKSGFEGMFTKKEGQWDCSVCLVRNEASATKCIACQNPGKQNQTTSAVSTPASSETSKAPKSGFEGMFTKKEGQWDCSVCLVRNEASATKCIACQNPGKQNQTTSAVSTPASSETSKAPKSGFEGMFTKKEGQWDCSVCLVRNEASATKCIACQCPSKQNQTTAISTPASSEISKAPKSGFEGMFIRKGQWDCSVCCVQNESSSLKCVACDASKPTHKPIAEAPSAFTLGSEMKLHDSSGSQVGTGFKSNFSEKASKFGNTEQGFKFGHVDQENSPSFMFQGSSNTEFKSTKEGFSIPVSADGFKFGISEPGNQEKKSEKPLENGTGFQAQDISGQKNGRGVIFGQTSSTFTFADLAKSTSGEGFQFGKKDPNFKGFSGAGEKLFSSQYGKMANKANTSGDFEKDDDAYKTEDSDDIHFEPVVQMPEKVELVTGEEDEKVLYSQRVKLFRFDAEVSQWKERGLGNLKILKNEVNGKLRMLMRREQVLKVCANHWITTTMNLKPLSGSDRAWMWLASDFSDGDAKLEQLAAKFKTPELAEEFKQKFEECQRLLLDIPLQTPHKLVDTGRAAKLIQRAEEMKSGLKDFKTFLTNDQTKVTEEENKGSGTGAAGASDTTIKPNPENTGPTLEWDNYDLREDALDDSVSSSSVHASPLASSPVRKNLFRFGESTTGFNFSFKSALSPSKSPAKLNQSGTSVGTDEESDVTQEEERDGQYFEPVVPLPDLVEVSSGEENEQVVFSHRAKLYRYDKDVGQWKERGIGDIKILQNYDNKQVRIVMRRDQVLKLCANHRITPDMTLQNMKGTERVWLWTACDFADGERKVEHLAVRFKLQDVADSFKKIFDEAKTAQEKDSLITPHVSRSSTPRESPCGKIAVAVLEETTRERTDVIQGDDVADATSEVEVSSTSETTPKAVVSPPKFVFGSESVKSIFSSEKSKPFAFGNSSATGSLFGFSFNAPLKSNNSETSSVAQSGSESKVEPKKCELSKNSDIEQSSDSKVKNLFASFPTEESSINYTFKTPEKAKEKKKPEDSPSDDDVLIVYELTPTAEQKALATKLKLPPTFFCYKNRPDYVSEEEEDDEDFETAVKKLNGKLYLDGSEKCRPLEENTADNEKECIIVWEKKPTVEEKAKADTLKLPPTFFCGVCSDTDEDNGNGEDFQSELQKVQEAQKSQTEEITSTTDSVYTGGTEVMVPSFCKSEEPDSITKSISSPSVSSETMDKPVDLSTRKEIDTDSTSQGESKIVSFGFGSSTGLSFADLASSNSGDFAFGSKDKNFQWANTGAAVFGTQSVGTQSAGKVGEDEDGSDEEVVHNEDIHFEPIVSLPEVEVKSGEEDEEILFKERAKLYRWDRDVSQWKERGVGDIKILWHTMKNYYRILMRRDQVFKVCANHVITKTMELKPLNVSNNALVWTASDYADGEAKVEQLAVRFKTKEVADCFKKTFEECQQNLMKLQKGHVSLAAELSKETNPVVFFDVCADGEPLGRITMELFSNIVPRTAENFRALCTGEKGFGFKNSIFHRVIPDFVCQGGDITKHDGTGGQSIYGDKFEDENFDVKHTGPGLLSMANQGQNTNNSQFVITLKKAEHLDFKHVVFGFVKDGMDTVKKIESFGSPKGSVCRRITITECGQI
SNRPG, P62308, UniProt P62308, whole entry: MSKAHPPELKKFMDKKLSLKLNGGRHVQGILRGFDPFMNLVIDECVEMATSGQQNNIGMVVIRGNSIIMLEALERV

The other results are listed elsewhere or left out. Only hits are listed; about a third recur on repeated control peptides.

Common to all, as to assay: PRISMA enrichment of interactor (LFQ) in peptide spot vs all other peptide spots (log2 fold change); higher = stronger / more specific binding of the interactor to the peptide
The target in one assay is ABCF3, Q9NUQ8. The method, then: (§1)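 PRISMA: 15-aa overlapping tiles (offset 8 aa) of 60 microproteins, plus SOS1/GLUT1 control peptides, were spot-synthesized on cellulose membranes in triplicate. Membranes were incubated with benzonase-treated HEK293T lysate, and bound proteins were identified by LC-MS/MS with LFQ. Enrichment is the log2 fold change of each protein in one spot versus all other spots. Only interactors passing the significance cutoff are listed.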

For another assay, the target named is BCKDK, O14874. How it is done:
as §1

Another assay has as its target CLTA, P09496. How it is done:
as §1

A further assay concerns the target CMC2, Q9NRP2. The method, then:
as §1

A further assay addresses DDX49, Q9Y6V7. The method, then:
as §1

The next assay addresses DSP, P15924. How it is done:
as §1

The target of a further assay is EMG1, Q92979. How it is done:
as §1

A further assay addresses FAM168A, Q92567. How it is done: as §1
The next assay deals with FOXO3, O43524. How it is done:
as §1

A further assay deals with GSPT2, Q8IYD1. How it is done:
as §1

The target in the next assay is MTCH2, Q9Y6C9. How it is done: as §1
The target of the next assay is NCOA5, Q9HCD5. The method, then: as §1
In a further assay the target is P4HB, P07237. The method, then: as §1
A further assay addresses PHAX, Q9H814. The method, then: as §1
In another assay the target is PPM1G, O15355. The method, then: as §1
For the next assay, the target named is PRKAR2A, P13861. The method, then:
as §1

In a further assay the target is SREK1, Q8WXA9. How it is done: as §1
For a further assay, the target named is ZC3H15, Q8WU90. How it is done:
as §1

For a further assay, the target named is ABLIM1, O14639. The method, then:
as §1

The next assay addresses AGTPBP1, Q9UPW5. The method, then: as §1
The target of the next assay is APOA4, P06727. The method, then:
as §1

A further assay concerns the target BAZ1B, Q9UIG0. The method, then: as §1
Another assay addresses BCLAF1, Q9NYF8. How it is done: as §1
In a further assay the target is CALD1, Q05682. The method, then: as §1
The target of the next assay is CENPQ, Q7L2Z9. How it is done: as §1
A further assay addresses CHD4, Q14839. The method, then:
as §1

Another assay addresses CLIC1, O00299. How it is done: as §1
A further assay deals with DBR1, Q9UK59. The method, then:
as §1

The target of the next assay is DVL2, O14641. How it is done:
as §1

A further assay has as its target ECHDC1, Q9NTX5. How it is done: as §1
The target of a further assay is EIF3H, O15372. The method, then: as §1
In the next assay the target is FANCD2, Q9BXW9. The method, then:
as §1

For the next assay, the target named is HLTF, Q14527. The method, then: as §1
A further assay has as its target HMGA2, P52926. The method, then: as §1
The next assay has as its target HMGB1, P09429. How it is done: as §1
For another assay, the target named is HP1BP3, Q5SSJ5. The method, then: as §1
A further assay addresses HSDL1, Q3SXM5. The method, then: as §1
In another assay the target is LMNB2, Q03252. The method, then:
as §1

The next assay has as its target MRPL48, Q96GC5. How it is done: as §1
The target of another assay is MRPL58, Q14197. How it is done: as §1
In a further assay the target is OBSL1, O75147. How it is done: as §1
The target of a further assay is PPP1R10, Q96QC0. The method, then:
as §1

The next assay concerns the target RAB21, Q9UL25. The method, then: as §1
The target in a further assay is RETREG3, Q86VR2. How it is done:
as §1

A further assay concerns the target RFC4, P35249. The method, then:
as §1

A further assay has as its target RIF1, Q5UIP0. How it is done: as §1
For another assay, the target named is RNF40, O75150. How it is done: as §1
For another assay, the target named is SAE1, Q9UBE0. How it is done: as §1
The next assay has as its target ACO2, Q99798. How it is done: as §1
The next assay has as its target API5, Q9BZZ5. The method, then:
as §1

The next assay addresses ARCN1, P48444. The method, then:
as §1

A further assay has as its target CPSF1, Q10570. The method, then: as §1
Another assay has as its target CWC22, Q9HCG8. The method, then:
as §1

The target in another assay is DTYMK, P23919. The method, then:
as §1

For a further assay, the target named is EARS2, Q5JPH6. How it is done: as §1
The target in another assay is FBXO21, O94952. The method, then:
as §1

The target of a further assay is HMGCL, P35914. The method, then: as §1
For a further assay, the target named is IK, Q13123. How it is done: as §1
The target of a further assay is KNOP1, Q1ED39. How it is done: as §1
In the next assay the target is MGA, Q8IWI9. How it is done:
as §1

The target in another assay is MUC19, Q7Z5P9. How it is done: as §1
The target in the next assay is PDIA5, Q14554. The method, then: as §1
For another assay, the target named is PPP6R3, Q5H9R7. How it is done: as §1
For the next assay, the target named is RANBP2, P49792. How it is done: as §1
The target in a further assay is SNRPG, P62308. How it is done:
as §1

The target in another assay is STMN1, P16949. How it is done:
as §1

In another assay the target is YWHAZ, P63104. The method, then:
as §1

B1: NAV2-AS2_2 (peptide)
chain: DFLTSSPDHREFLST
As to B1, the “PRISMA enrichment of interactor (log2)” value is 3.89 with ABCF3, Q9NUQ8; 4.7 in the assay with BCKDK, O14874; 5.59 with CLTA, P09496; 6.82 with CMC2, Q9NRP2; 5.27 with DDX49, Q9Y6V7; 4.69 with DSP, P15924. The “PRISMA enrichment of interactor (log2)” value in the assay with EMG1, Q92979 was determined as 5.21; in the assay with FAM168A, Q92567 it was 6.81; with FOXO3, O43524, 4.52; with GSPT2, Q8IYD1, 4.86; with MTCH2, Q9Y6C9, 4.88; with NCOA5, Q9HCD5 it was 4.24. In addition, the “PRISMA enrichment of interactor (log2)” value with P4HB, P07237 came out at 4.59; with PHAX, Q9H814, 9.47; with PPM1G, O15355, 5.06; with PRKAR2A, P13861, 4.22; with SREK1, Q8WXA9 it was 4.63; in the assay with ZC3H15, Q8WU90 it was 4.73.

B2: RP11-140K17.3 (peptide)
chain: CTQPSQQGVCHSRLK
In the case of B2, the “PRISMA enrichment of interactor (log2)” value was 7.13 with ABLIM1, O14639; 6.17 in the assay with AGTPBP1, Q9UPW5; 4.59 in the assay with APOA4, P06727; 7.38 with BAZ1B, Q9UIG0; 5.19 with BCLAF1, Q9NYF8; 5.8 with CALD1, Q05682. Further, the “PRISMA enrichment of interactor (log2)” value with CENPQ, Q7L2Z9 came to 4.03; in the assay with CHD4, Q14839, 4.7; with CLIC1, O00299, 5.58; with DBR1, Q9UK59, 4.91; with DVL2, O14641, 4.4; with ECHDC1, Q9NTX5, 4.77. In addition, the “PRISMA enrichment of interactor (log2)” value with EIF3H, O15372 was determined as 7.08; with FANCD2, Q9BXW9, 5.19; with HLTF, Q14527, 4.64; with HMGA2, P52926, 7.16; in the assay with HMGB1, P09429, 4.68; with HP1BP3, Q5SSJ5 it was 6.19. Further, the “PRISMA enrichment of interactor (log2)” value in the assay with HSDL1, Q3SXM5 was found to be 4.67; with LMNB2, Q03252 it was 4.91; with MRPL48, Q96GC5, 4.82; with MRPL58, Q14197, 3.93; in the assay with OBSL1, O75147, 6.85; in the assay with PPP1R10, Q96QC0, 6.21. Further, the “PRISMA enrichment of interactor (log2)” value amounted to 3.93 with RAB21, Q9UL25; 3.9 with RETREG3, Q86VR2; 4.78 with RFC4, P35249; 9.2 with RIF1, Q5UIP0; 3.75 with RNF40, O75150; 5.11 with SAE1, Q9UBE0.

B3: RP11-644F5.11 (peptide)
chain: GRTEFWPHCEERQKP
B3: the “PRISMA enrichment of interactor (log2)” value in the assay with ABCF3, Q9NUQ8 came out at 8.91; with ACO2, Q99798, 4.7; with API5, Q9BZZ5 it was 4.87; in the assay with ARCN1, P48444, 4.38; with CPSF1, Q10570, 6.87; with CWC22, Q9HCG8, 5.17. Further, the “PRISMA enrichment of interactor (log2)” value with DTYMK, P23919 worked out at 5.77; with EARS2, Q5JPH6, 6.32; with FBXO21, O94952, 3.85; with HMGCL, P35914, 5.33; in the assay with IK, Q13123, 6.98; in the assay with KNOP1, Q1ED39 it was 4.88. The “PRISMA enrichment of interactor (log2)” value with MGA, Q8IWI9 was 3.85; in the assay with MUC19, Q7Z5P9, 7.49; with PDIA5, Q14554, 6.14; with PPP6R3, Q5H9R7, 6.04; with RANBP2, P49792, 5.39; with SNRPG, P62308 it was 7.28. Also, the “PRISMA enrichment of interactor (log2)” value worked out at 5.22 in the assay with STMN1, P16949 and 4.8 in the assay with YWHAZ, P63104.
